No constants are given. Whether binding was seen depends on the method and setting. In cells and extracts the contact can be indirect. These calls come from enrichment with a bait or labelling near it, and not all partners need be listed. Where a sequence is shown, tags or fusion partners need not be part of it.
Experiments:
[1] = biological target: T1, Human Lon protease with Myc tag (human) (UniProt P36776); experiment: affinity purification with mass spectrometry; Lon-myc immunocomplex from 293/Lon lysate on anti-c-Myc agarose, washed with NETN, eluted by 6 M urea, in-solution digestion, shotgun nanoLC-MS/MS; three experiments, 293/myc cells as negative control
T1 sequence: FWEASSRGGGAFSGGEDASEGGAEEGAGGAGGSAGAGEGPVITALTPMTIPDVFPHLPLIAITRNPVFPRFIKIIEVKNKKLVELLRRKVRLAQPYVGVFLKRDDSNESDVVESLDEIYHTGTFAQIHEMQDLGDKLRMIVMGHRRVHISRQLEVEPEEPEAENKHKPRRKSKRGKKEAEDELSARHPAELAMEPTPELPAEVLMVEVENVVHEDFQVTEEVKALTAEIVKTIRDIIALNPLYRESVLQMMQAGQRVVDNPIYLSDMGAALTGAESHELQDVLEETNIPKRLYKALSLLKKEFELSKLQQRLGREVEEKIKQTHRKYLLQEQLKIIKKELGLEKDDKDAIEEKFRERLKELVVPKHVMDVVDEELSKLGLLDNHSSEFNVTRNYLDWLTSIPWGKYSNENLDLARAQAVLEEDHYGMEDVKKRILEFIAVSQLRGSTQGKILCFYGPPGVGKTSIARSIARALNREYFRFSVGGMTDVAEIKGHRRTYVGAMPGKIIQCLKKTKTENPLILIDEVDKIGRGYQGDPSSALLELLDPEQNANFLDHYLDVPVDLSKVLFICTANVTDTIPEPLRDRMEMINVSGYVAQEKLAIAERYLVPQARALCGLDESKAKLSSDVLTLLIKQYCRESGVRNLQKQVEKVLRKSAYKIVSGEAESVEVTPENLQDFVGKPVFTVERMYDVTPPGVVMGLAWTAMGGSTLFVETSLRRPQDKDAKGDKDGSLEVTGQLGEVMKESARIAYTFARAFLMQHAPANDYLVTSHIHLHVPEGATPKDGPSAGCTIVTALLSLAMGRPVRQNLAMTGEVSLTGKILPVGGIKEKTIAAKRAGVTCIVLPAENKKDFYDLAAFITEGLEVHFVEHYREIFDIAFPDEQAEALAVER

Chains of the proteins cited; added tags and fusions are not shown. Residues count along the entry.
UniProt P07355: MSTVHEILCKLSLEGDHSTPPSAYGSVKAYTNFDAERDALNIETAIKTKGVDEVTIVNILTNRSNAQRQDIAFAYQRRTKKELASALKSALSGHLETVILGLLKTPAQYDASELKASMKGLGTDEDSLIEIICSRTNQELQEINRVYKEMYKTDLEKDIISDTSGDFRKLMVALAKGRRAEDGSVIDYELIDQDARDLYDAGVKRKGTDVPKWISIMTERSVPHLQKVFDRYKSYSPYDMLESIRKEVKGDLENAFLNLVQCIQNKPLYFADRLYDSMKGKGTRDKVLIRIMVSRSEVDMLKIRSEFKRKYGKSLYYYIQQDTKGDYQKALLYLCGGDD
UniProt P35580: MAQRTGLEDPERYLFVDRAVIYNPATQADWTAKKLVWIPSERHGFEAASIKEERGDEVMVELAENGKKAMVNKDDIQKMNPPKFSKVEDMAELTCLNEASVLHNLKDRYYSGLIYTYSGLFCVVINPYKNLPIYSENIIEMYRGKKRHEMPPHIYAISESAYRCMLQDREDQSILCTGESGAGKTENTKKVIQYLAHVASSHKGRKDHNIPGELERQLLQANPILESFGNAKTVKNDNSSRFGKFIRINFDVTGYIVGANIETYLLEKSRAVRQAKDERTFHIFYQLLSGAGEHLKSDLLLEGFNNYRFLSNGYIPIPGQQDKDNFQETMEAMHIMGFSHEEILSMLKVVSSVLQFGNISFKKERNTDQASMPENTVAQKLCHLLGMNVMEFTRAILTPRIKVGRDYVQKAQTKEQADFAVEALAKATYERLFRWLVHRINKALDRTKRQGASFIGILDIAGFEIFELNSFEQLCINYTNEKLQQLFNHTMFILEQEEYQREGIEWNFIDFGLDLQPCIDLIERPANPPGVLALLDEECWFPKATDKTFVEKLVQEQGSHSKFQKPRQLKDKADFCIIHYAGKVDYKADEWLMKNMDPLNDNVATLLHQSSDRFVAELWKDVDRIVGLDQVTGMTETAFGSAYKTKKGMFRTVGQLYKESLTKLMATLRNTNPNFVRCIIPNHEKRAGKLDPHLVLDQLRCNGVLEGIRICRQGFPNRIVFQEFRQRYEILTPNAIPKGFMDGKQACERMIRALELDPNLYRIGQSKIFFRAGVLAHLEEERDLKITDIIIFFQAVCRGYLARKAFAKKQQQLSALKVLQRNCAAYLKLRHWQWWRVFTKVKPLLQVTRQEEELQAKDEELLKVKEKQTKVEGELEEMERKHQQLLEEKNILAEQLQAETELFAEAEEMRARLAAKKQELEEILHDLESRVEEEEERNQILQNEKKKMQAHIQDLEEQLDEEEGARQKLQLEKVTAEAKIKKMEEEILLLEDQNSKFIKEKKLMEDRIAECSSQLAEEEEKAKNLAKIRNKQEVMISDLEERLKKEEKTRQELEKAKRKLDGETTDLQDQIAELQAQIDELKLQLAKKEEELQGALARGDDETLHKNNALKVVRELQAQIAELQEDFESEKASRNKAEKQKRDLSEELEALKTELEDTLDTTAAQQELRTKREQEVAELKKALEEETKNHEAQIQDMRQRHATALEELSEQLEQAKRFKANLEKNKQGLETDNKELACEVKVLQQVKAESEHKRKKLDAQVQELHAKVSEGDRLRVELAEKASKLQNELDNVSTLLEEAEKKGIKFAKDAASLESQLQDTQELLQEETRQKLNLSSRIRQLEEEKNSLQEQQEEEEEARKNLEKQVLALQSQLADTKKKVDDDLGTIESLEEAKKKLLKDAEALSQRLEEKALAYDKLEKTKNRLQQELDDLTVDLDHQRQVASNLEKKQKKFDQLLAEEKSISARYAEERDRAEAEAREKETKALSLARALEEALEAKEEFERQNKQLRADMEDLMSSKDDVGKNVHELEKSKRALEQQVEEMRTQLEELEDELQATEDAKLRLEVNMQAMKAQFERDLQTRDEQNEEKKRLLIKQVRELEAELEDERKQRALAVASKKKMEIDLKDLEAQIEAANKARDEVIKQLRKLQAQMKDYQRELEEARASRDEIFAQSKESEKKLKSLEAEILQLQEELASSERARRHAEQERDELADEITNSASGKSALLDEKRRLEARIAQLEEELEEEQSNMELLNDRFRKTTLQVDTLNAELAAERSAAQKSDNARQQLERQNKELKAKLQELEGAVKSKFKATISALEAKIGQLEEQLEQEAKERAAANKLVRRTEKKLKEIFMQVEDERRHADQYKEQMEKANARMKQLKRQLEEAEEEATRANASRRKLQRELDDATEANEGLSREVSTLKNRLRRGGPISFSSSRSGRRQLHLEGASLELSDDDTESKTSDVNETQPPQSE
UniProt P11021, residues 19-654: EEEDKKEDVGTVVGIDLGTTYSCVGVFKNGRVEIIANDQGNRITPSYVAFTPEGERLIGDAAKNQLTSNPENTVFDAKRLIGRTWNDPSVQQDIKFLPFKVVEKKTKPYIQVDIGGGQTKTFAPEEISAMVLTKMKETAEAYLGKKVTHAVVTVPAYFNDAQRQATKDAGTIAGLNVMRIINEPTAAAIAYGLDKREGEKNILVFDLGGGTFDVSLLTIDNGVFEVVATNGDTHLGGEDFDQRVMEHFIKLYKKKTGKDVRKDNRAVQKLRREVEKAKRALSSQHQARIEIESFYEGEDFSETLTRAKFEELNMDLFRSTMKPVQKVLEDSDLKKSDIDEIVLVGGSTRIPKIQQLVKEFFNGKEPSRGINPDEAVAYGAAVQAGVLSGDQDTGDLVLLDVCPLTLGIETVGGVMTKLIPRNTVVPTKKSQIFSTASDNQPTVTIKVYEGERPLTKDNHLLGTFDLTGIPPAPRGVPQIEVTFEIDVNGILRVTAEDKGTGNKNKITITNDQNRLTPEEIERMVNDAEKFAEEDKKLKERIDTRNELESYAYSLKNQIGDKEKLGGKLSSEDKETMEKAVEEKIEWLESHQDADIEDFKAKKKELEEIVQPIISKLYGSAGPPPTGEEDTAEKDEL
UniProt P61604: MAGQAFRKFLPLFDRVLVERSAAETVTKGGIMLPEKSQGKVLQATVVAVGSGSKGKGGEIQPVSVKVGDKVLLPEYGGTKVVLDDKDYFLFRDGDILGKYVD
UniProt O00217, residues 35-210: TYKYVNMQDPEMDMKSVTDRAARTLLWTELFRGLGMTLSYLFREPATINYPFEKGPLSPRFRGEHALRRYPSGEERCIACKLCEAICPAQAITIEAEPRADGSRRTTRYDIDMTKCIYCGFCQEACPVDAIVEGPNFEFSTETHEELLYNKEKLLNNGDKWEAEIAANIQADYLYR
UniProt P35579: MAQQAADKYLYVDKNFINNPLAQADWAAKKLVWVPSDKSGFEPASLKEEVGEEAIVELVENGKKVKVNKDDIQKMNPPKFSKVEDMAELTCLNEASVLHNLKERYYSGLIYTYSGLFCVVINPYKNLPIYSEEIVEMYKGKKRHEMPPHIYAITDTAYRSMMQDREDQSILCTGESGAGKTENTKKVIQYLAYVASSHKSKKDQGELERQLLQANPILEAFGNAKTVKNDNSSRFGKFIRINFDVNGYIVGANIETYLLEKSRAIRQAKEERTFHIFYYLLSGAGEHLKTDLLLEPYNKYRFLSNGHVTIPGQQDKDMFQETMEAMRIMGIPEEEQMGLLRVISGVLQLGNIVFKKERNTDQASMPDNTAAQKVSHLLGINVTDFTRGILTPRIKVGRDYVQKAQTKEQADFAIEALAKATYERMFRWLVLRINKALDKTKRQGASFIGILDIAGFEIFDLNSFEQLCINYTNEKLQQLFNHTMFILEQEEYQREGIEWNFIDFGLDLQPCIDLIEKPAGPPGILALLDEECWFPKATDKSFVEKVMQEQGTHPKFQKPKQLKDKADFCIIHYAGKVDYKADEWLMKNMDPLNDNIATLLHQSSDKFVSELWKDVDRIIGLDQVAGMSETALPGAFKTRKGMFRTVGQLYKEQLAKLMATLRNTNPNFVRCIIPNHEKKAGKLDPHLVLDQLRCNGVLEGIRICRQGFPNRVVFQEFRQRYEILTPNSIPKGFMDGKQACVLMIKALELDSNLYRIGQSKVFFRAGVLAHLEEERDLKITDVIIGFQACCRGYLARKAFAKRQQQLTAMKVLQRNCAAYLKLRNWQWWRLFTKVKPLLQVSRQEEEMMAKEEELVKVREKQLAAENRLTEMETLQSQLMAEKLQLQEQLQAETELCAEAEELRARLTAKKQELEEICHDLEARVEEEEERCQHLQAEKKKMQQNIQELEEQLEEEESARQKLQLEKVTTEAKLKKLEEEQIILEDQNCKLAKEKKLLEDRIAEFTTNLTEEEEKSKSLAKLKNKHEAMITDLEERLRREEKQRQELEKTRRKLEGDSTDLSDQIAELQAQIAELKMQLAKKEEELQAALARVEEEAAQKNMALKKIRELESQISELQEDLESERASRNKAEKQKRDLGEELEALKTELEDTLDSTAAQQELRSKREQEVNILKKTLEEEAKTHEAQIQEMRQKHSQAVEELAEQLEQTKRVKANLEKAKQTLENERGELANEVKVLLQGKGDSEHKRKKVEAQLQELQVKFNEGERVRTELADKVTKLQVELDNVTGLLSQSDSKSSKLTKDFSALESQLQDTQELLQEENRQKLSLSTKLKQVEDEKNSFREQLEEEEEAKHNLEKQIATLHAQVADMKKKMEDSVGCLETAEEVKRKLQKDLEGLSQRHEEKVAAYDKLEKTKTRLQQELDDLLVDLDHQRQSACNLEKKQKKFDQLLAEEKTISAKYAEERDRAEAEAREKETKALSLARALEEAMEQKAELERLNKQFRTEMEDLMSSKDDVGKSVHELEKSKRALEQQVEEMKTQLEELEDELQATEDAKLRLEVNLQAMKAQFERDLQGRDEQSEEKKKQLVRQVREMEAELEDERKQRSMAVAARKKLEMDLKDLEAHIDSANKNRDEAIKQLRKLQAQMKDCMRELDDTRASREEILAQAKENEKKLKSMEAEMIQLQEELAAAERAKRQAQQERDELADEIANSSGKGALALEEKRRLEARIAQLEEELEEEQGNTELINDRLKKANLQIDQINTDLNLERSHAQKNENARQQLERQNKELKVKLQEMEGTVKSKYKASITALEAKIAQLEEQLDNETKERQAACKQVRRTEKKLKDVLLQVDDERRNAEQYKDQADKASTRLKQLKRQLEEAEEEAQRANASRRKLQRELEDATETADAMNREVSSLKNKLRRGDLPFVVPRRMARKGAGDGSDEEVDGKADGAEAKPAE
UniProt P38646, residues 47-679: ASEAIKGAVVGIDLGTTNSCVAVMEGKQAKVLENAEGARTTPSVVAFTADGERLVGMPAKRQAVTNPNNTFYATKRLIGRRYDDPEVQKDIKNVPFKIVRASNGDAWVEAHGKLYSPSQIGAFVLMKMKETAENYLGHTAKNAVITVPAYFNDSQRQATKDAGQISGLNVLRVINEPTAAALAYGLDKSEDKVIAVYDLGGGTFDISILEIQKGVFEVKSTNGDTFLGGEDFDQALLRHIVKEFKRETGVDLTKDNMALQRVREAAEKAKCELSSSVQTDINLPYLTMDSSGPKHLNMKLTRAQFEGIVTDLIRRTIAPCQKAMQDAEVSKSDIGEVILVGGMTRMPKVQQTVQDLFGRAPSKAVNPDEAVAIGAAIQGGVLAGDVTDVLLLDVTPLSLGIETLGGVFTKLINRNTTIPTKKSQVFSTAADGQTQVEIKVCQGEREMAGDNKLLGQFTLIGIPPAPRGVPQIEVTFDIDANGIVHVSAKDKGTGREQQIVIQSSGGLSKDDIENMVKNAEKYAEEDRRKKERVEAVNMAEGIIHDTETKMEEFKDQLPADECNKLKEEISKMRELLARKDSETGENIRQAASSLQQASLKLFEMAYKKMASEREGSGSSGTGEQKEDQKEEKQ

[2] = biological target: T1, Human Lon protease with Myc tag (human); experiment: affinity purification with mass spectrometry; anti-myc Co-IP from 293/Lon cells; eluate resolved by 1-D SDS-PAGE, bands digested in gel and identified by mass spectrometry

| binding [1] | binding [2] | Substance |
| --- | --- | --- |
| binds |  | Annexin A2 (from UniProt P07355 1-339) |
| binds | binds | Myosin 10 (from UniProt P35580 1-1976) |
| binds | binds | 78 kDa glucose-regulated protein (GRP78) (from UniProt P11021 19-654) |
| binds |  | 10 kDa heat-shock protein, mitochondrial (HSP10) (from UniProt P61604 1-102) |
| binds |  | NADH dehydrogenase [ubiquinone] iron-sulfur protein 8 (NDUFS8) (from UniProt O00217 35-210) |
| binds |  | Caspase 14 (human (endogenous in 293)) (enzyme) |
| binds | binds | Myosin 9 (from UniProt P35579 1-1960) |
| binds | binds | Stress-70 protein, mitochondrial (mtHSP70) (from UniProt P38646 47-679) |

— PMC4669791
